Laboratory results: publication PMC8170045
Results are given in words; binding and its absence hold for the method and conditions named. Binding seen in cells or lysates may run through a third protein. Some binding calls cover weakened binding; strength is not graded here.

Protein sequences, listed by entry. Tags and fused reporters are not part of them. Lines headed by an entry give the natural chain unless they say otherwise; changes in a name come on top.
UniProt P05556: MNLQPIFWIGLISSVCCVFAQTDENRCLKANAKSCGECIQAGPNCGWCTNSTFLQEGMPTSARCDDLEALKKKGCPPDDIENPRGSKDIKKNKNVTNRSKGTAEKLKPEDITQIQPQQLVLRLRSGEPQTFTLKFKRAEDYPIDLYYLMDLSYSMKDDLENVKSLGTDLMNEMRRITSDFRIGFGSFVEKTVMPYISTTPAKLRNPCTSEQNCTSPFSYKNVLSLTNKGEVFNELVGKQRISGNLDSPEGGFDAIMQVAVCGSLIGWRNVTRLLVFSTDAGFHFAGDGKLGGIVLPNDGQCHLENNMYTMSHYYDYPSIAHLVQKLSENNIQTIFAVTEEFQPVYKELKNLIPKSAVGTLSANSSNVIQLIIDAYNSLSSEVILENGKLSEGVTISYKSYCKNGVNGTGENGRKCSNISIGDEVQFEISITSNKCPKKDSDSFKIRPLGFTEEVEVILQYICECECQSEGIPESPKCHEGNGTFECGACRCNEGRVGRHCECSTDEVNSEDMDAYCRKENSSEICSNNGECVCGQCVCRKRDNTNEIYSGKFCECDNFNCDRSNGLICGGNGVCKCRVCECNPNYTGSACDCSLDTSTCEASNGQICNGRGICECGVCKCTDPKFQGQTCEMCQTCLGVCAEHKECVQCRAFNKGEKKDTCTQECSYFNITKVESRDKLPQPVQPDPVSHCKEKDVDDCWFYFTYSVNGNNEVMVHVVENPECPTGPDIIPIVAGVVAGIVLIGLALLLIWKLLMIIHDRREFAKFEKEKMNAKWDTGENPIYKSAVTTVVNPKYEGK

Target: T1, DCBLD2 (discoidin, CUB and LCCL domain containing 2) (human (endogenous in HCT116)) (UniProt Q96PD2)
T1 sequence: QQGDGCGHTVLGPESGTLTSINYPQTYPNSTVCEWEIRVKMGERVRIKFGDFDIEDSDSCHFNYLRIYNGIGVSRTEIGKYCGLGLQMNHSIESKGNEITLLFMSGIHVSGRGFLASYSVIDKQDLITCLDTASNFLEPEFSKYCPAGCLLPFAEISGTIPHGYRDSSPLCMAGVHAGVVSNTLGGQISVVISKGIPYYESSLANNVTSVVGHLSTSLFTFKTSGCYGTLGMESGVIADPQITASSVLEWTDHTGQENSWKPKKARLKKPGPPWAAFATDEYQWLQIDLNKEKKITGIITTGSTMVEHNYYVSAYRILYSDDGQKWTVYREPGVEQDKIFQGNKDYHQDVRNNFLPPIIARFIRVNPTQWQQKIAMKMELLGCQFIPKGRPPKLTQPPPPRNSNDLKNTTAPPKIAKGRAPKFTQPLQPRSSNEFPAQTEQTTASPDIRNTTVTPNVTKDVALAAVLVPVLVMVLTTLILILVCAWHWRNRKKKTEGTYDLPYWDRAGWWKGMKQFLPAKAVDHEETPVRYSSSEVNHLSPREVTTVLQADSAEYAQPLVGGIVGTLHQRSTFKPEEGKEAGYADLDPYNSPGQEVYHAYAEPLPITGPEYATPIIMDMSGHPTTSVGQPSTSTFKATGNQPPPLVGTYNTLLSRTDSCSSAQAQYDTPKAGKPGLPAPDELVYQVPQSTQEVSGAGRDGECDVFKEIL
Test: co-IP; HCT116 lysate (Hepes, KCl, MgCl2, EDTA, Triton-X100 lysis buffer); immunoprecipitated with DCBLD2 or ITGB1 antibodies (4 ug) on Protein A/G agarose beads overnight at 4°C, washed with PBS 3 times; immunoblotted with ITGB1 or DCBLD2 antibodies, respectively

- binding: binds
Substance: ITGB1 (from UniProt P05556 21-798)
